Measured values published in article PMC3379939.
Results are given in words; binding and its absence hold for the method and conditions named. Binding seen in cells or lysates may run through a third protein. Some entries that bind do so weakly or less than the wild type. One block for each binder: values may come before it.

Protein sequences, listed by entry. Tags and fused reporters are not part of them.
UniProt P19338: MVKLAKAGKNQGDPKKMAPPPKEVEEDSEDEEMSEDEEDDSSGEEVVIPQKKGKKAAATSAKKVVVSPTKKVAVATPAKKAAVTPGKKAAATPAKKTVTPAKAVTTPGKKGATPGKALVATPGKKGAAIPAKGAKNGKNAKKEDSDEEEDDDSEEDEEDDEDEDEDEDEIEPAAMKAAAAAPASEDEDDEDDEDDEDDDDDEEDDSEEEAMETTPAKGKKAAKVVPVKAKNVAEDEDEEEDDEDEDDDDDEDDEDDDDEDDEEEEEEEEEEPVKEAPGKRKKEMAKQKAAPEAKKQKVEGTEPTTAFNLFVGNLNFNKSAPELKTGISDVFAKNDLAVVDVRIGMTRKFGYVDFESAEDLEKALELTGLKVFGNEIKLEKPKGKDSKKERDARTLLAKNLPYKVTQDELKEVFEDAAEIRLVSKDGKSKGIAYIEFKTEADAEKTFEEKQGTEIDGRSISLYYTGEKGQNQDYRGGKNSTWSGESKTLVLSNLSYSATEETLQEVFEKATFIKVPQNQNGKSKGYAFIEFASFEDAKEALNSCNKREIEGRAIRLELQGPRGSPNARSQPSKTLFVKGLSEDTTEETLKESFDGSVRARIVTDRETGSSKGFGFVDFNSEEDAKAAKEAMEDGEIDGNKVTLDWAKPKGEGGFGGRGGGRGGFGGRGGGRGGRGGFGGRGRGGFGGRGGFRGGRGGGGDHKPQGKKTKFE

Columns and labels:
[1] = target: Nucleolin (NCL), endogenous in human cells (human (endogenous in HUVEC and U87MG)) (UniProt P19338); experiment: co-IP; HUVEC lysates in PBS with 1% Triton X-100, 0.1% SDS; immunoprecipitation for IgG, PTN or NCL, Western blot for NCL or PTN respectively
[2] = target: Nucleolin (NCL), endogenous in human cells (human (endogenous in HUVEC and U87MG)) (UniProt P19338); experiment: co-IP; nuclear, cytosolic and membrane fractions of U87MG cells, equal total protein; immunoprecipitated for NCL or PTN, Western blot for PTN or NCL
[3] = target: T1, Nucleolin (NCL), endogenous in chicken embryo CAM (chicken (endogenous in chicken embryo CAM)) (UniProt P15771); experiment: co-IP; 3 mg total protein of chicken embryo CAM extracts from different developmental stages; homogenised in PBS with 1% Triton X-100, 0.1% SDS; primary antibody 16 h at 4°C, protein A- and G-agarose beads; Western blot of the precipitate
T1 sequence: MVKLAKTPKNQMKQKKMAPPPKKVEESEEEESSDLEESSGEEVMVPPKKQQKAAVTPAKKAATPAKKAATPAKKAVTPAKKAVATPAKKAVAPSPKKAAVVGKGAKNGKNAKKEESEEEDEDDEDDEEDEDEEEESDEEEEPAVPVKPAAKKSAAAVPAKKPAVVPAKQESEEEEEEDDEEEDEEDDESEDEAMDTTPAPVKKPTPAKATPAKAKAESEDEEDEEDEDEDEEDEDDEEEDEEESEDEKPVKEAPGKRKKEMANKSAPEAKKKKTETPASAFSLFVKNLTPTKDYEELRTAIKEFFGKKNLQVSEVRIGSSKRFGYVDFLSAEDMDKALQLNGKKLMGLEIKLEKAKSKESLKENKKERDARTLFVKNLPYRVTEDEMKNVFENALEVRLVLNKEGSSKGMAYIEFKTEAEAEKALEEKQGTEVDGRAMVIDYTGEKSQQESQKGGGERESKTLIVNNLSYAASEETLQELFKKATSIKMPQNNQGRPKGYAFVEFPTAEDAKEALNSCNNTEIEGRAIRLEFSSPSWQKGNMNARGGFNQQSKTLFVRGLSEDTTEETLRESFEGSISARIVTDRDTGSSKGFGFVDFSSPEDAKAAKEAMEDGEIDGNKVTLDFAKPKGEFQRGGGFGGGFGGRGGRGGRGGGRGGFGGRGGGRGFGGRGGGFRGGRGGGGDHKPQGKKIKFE

binding [1]: binds
binding [2]: binds
B1: Pleiotrophin (PTN), endogenous in human cells (ligand, UniProt P21246 33-168)
chain: GKKEKPEKKVKKSDCGEWQWSVCVPTSGDCGLGTREGTRTGAECKQTMKTQRCKIPCNWKKQFGAECKYQFQAWGECDLNTALKTRTGSLKRALHNAECQKTVTISKPCGKLTKPKPQAESKKKKKEGKKQEKMLD

binding [3]: binds
B2: Pleiotrophin (PTN), endogenous in chicken embryo chorioallantoic membrane (CAM) (ligand, UniProt P32760 31-165)
chain: GKKEKPEKKAKKSDCGEWQWSVCVPTNGDCGLGTREGTRTGAECKQTTKTQKCKIPCNWKKQFGAECKYQFQAWGECDLNTALKTRTGNLKRALHNADCQKTVTISKPCGKLTKPKPQESKKKKKEGKKQEKMLD
